Measurements published in the supplement of paper PMC10331698.
± gives the standard deviation of the averaged measurements. Most values lie at the level of the controls, where differences are scatter.

Legend:
Assay in all cases: level (log10 ratio to DMSO vehicle control); higher = higher biomarker level / cell amount than vehicle control
[1] = compound: O=S(=O)(O)C(F)(F)C(F)(F)C(F)(F)C(F)(F)F [Perfluorobutanesulfonic acid] (in DMSO)
Method: (§1)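 BioMAP Diversity Plus panel of 12 human primary cell co-culture systems (3C, 4H, LPS, SAg, BT, BF4T, BE3C, CASM3C, HDF3CGF, KF3CT, MyoF, Mphg). Compounds were added 1 h before stimulation and left for 24 h (MyoF 48 h; BT 72 h for soluble read-outs or 6 d for IgG). Biomarkers were read by ELISA, cytotoxicity by SRB, PBMC viability and proliferation by Alamar Blue. Each well value was divided by the mean of 8 DMSO control wells on the same plate and log10 transformed; duplicate blinded samples were tested at 4 concentrations.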

[2] = compound: FC(F)(F)COC(OCC(F)(F)F)OCC(F)(F)F [tris(Trifluoroethoxy)methane] (in DMSO); details: 2200 nM
Method: as §1

[3] = compound: O=C(O)C(F)(OC(F)(F)C(F)(F)C(F)(F)F)C(F)(F)F [Ammonium perfluoro-2-methyl-3-oxahexanoate] (in Water)
Method: as §1

Perfluorohexanoic acid = compound: O=C(O)C(F)(F)C(F)(F)C(F)(F)C(F)(F)C(F)(F)F [Perfluorohexanoic acid] (in DMSO)
Method: as §1

[4] = compound: O=C(O)C(F)(OC(F)(F)C(F)(OC(F)(F)C(F)(OC(F)(F)C(F)(F)C(F)(F)F)C(F)(F)F)C(F)(F)F)C(F)(F)F [Perfluoro-(2,5,8-trimethyl-3,6,9-trioxadodecanoic)acid] (in DMSO); details: 370 nM
Method: as §1

[5] = compound: OCCCC(F)(F)C(F)(F)C(F)(F)C(F)(F)C(F)(F)C(F)(F)C(F)(F)C(F)(F)F [3-(Perfluorooctyl)propanol] (in DMSO); details: 2200 nM
Method: as §1

[6] = compound: OCC(F)(F)C(F)(F)C(F)(F)C(F)F [1H,1H,5H-Perfluoropentanol] (in DMSO); details: 2200 nM
Method: as §1

Hexafluoroglutaric acid = compound: O=C(O)C(F)(F)C(F)(F)C(F)(F)C(=O)O [Hexafluoroglutaric acid] (in DMSO)
Method: as §1

[7] = compound: FC(F)(F)C(F)(F)C(F)(F)C(F)(F)CCI [1H,1H,2H,2H-Perfluorohexyl iodide] (in DMSO); details: 2200 nM
Method: as §1

[8] = compound: CNS(=O)(=O)C(F)(F)C(F)(F)C(F)(F)C(F)(F)C(F)(F)C(F)(F)C(F)(F)C(F)(F)F [N-Methylperfluorooctanesulfonamide] (in DMSO); details: 2200 nM
Method: as §1

[9] = compound: OCC(F)(F)OC(F)(F)C(F)(F)OC(F)(F)CO [1H,1H,8H,8H-Perfluoro-3,6-dioxaoctane-1,8-diol] (in DMSO); details: 2200 nM
Method: as §1

[10] = compound: FC(F)(F)C(F)(F)CNCC(F)(F)C(F)(F)F [Bis(1H,1H-perfluoropropyl)amine] (in DMSO); details: 2200 nM
Method: as §1

[11] = compound: O=C(O)C(F)(F)C(F)(F)C(F)(F)OC(F)(C(F)(F)F)C(F)(F)F [Perfluoro-4-isopropoxybutanoic acid] (in DMSO); details: 2200 nM
Method: as §1

[12] = compound: OCC(F)(F)C(F)(F)C(F)(F)C(F)(F)C(F)(F)C(F)(F)CO [1H,1H,8H,8H-Perfluorooctane-1,8-diol] (in DMSO); details: 2200 nM
Method: as §1

[13] = compound: O=C(O)CCC(F)(F)C(F)(F)C(F)(F)F [3:3 Fluorotelomer carboxylic acid] (in DMSO); details: 2200 nM
Method: as §1

[14] = compound: OCC(F)(F)C(F)(F)C(F)(F)C(F)(F)C(F)(F)C(F)(F)F [6:1 Fluorotelomer alcohol] (in DMSO); details: 2200 nM
Method: as §1

[15] = compound: C=C(C)C(=O)OCCC(F)(F)C(F)(F)C(F)(F)C(F)(F)C(F)(F)C(F)(F)F [6:2 Fluorotelomer methacrylate] (in DMSO); details: 2200 nM
Method: as §1

Test System | level (log10) ([1]; 2200 nM) | level (log10) ([1]; 6700 nM) | level (log10) ([1]; 20000 nM) | level (log10) ([1]; 60000 nM) | level (log10) [2] | level (log10) ([3]; 2200 nM) | level (log10) ([3]; 6700 nM) | level (log10) ([3]; 20000 nM) | level (log10) ([3]; 60000 nM) | level (log10) (Perfluorohexanoic acid; 2200 nM) | level (log10) (Perfluorohexanoic acid; 6700 nM) | level (log10) (Perfluorohexanoic acid; 20000 nM) | level (log10) (Perfluorohexanoic acid; 60000 nM) | level (log10) [4] | level (log10) [5] | level (log10) [6] | level (log10) (Hexafluoroglutaric acid; 2200 nM) | level (log10) (Hexafluoroglutaric acid; 6700 nM) | level (log10) (Hexafluoroglutaric acid; 20000 nM) | level (log10) (Hexafluoroglutaric acid; 60000 nM) | level (log10) [7] | level (log10) [8] | level (log10) [9] | level (log10) [10] | level (log10) [11] | level (log10) [12] | level (log10) [13] | level (log10) [14] | level (log10) [15]
HDF3CGF:CD106/VCAM-1 | 0.0025 ± 0.047 | -0.02 ± 0.013 | -0.01 ± 0.0014 | -0.025 ± 0.058 | -0.0215 ± 0.036 | -0.0185 ± 0.0064 | -0.039 ± 0.021 | -0.044 ± 0.027 | -0.131 ± 0.016 | -0.0745 ± 0.093 | -0.043 ± 0.04 | -0.008 ± 0.023 | -0.0145 ± 0.086 | -0.049 ± 0.013 | -0.08 ± 0.03 | -0.037 ± 0.014 | -0.0435 ± 0.0021 | -0.045 ± 0.0071 | -0.0195 ± 0.071 | -0.05 ± 0.12 | -0.025 ± 0.068 | -0.121 ± 0.041 | -0.0025 ± 0.0092 | -0.0055 ± 0.032 | -0.01 ± 0.035 | -0.008 ± 0.0028 | -0.017 ± 0.0085 | -0.04 ± 0.098 | 0.0015 ± 0.016
HDF3CGF:CXCL8/IL-8 | 0.007 ± 0.018 | 0.0025 ± 0.0078 | -0.002 ± 0.0057 | -0.0025 ± 0.0021 | -0.0035 ± 0.005 | -0.008 ± 0.0042 | -0.0135 ± 0.015 | 0.001 ± 0.011 | 0.0045 ± 0.0035 | 0 ± 0.0085 | -0.003 ± 0.0057 | 0.006 ± 0.0014 | 0.005 ± 0.0071 | -0.004 ± 0.014 | 0.0035 ± 0.00071 | 0.0095 ± 0.0021 | -0.0095 ± 0.0064 | -0.005 ± 0.013 | -0.0005 ± 0.0064 | -0.0015 ± 0.0035 | -0.002 ± 0.014 | -0.0045 ± 0.016 | 0.0105 ± 0.0078 | 0.0085 ± 0.013 | 0.009 ± 0.0014 | 0.0065 ± 0.005 | -0.0065 ± 0.0021 | -0.003 ± 0.013 | 0.0005 ± 0.023
HDF3CGF:CXCL9/MIG | -0.0175 ± 0.021 | -0.01 ± 0.0085 | -0.0145 ± 0.0092 | -0.0035 ± 0.005 | -0.009 ± 0.0014 | -0.018 ± 0.02 | -0.011 ± 0.028 | -0.02 ± 0.014 | -0.016 ± 0.064 | -0.0265 ± 0.047 | 0.004 ± 0.0099 | 0.001 ± 0.0099 | -0.019 ± 0.034 | -0.0305 ± 0.05 | 0.003 ± 0.031 | -0.011 ± 0.047 | 0.007 ± 0.0057 | -0.013 ± 0.014 | -0.025 ± 0.011 | -0.005 ± 0.013 | -0.007 ± 0.023 | -0.0015 ± 0.012 | 0.0265 ± 0.012 | -0.0015 ± 0.0021 | 0.0065 ± 0.022 | 0.0135 ± 0.0064 | 0.0075 ± 0.049 | -0.0055 ± 0.00071 | -0.0055 ± 0.013
HDF3CGF:CXCL10/IP-10 | 0.005 ± 0.0042 | -0.0075 ± 0.0078 | -0.0105 ± 0.005 | -0.0195 ± 0.0021 | 0 ± 0.0014 | 0.007 ± 0.014 | 0.002 ± 0.013 | -0.0085 ± 0.00071 | -0.0025 ± 0.012 | -0.0235 ± 0.022 | -0.0135 ± 0.023 | -0.0215 ± 0.0035 | -0.0235 ± 0.013 | 0.0155 ± 0.0092 | -0.012 ± 0.021 | -0.01 ± 0.024 | -0.019 ± 0.057 | 0.0035 ± 0.021 | -0.008 ± 0.0071 | -0.011 ± 0.037 | 0.003 ± 0.033 | -0.059 ± 0.041 | 0.002 ± 0.017 | 0.0075 ± 0.023 | -0.015 ± 0.0071 | 0.0035 ± 0.016 | -0.006 ± 0.013 | -0.007 ± 0.0042 | -0.0055 ± 0.005
HDF3CGF:CXCL11/I-TAC | -0.001 ± 0.037 | -0.0235 ± 0.00071 | 0.005 ± 0.0028 | -0.005 ± 0.0014 | -0.0155 ± 0.011 | -0.0015 ± 0.005 | 0.002 ± 0.0057 | -0.0045 ± 0.019 | 0.002 ± 0.0099 | -0.021 ± 0.054 | 0.0045 ± 0.005 | 0.0005 ± 0.021 | -0.021 ± 0.031 | 0.0035 ± 0.036 | -0.023 ± 0.033 | -0.0065 ± 0.049 | -0.0065 ± 0.005 | 0.014 ± 0.0014 | -0.011 ± 0.072 | -0.0115 ± 0.061 | 0.0095 ± 0.021 | -0.0145 ± 0.0021 | 0.0195 ± 0.012 | -0.0015 ± 0.0021 | 0.018 ± 0.0057 | -0.004 | -0.0025 ± 0.013 | -0.013 ± 0.016 | -0.009 ± 0.016
HDF3CGF:Collagen I | -0.0035 ± 0.081 | 0.0175 ± 0.037 | -0.003 ± 0.025 | 0.0345 ± 0.043 | 0.035 ± 0.092 | -0.024 ± 0.038 | -0.029 ± 0.031 | 0.0015 ± 0.005 | -0.0095 ± 0.0092 | 0.0395 ± 0.029 | -0.035 ± 0.033 | 0.02 ± 0.025 | -0.0035 ± 0.054 | 0.0155 ± 0.019 | 0.0545 ± 0.06 | 0.0375 ± 0.06 | 0.009 ± 0.098 | -0.03 ± 0.014 | -0.0385 ± 0.0078 | 0.0105 ± 0.071 | 0.0515 ± 0.026 | 0.0285 ± 0.026 | 0.0135 ± 0.056 | -0.012 ± 0.0099 | 0.032 ± 0.042 | -0.017 ± 0.041 | 0.0095 ± 0.03 | 0.001 ± 0.0071 | 0.01 ± 0.064
HDF3CGF:Collagen III | -0.0055 ± 0.011 | -0.013 ± 0.048 | 0.035 ± 0.016 | 0.047 ± 0.016 | -0.008 ± 0.038 | 0.0165 ± 0.0035 | -0.0055 ± 0.0064 | -0.015 ± 0.041 | -0.0705 ± 0.028 | 0.044 ± 0.016 | 0.0515 ± 0.013 | 0.0305 ± 0.0092 | -0.0245 ± 0.071 | -0.081 ± 0.017 | -0.009 ± 0.037 | -0.03 ± 0.03 | 0.006 ± 0.03 | -0.0065 ± 0.015 | -0.0275 ± 0.00071 | -0.0125 ± 0.00071 | 0.014 ± 0.0099 | -0.065 ± 0.02 | 0.0065 ± 0.012 | 0.037 ± 0.04 | 0.008 ± 0.0014 | -0.016 ± 0.013 | -0.005 ± 0.0085 | -0.012 ± 0.071 | -0.0185 ± 0.022
